# At least one structure is not confirmed: it was looked up by name or label, or the drawing left a doubt.
# System: mCherry expression in E. coli
# Experiment: Bulk mCherry fluorescence of E. coli strains (plate reader, normalized to OD600) after induction with phenolics
# Format: cell-based
# Conditions: strains RIF01-RIF04; effect emerged after 24 h
# Protocol: Cell growth and bulk fluorescence measurements: For the fluorescence experiments, frozen stocks of the strains were used to inoculate 5 ml of LB medium containing 25 mg l^−1 chloramphenicol and incubated at 37° C. with an orbital shaking of 250 r.p.m. Overnight cultures were used to inoculate (0.1% volume/volume) an M9 salt medium containing 25 mg l^−1 chloramphenicol, 20 g l^−1 glucose, and 5 g l^−1 yeast extract. The M9 salt medium (Sigma-Aldrich) contains 6.78 g l^−1 Na2HPO4, 3 g l^−1 KH2PO4, 0.5 g l^−1 NaCl, 1 g l^−1 NH4Cl, 0.1 mM CaCl2), and 2 mM MgSO4. […]
# The cultures were grown until mid-log phase at 37° C. and 250 rpm. […] The induced cells were incubated in a plate reader (Tecan Infinite 200 Pro) at 30° C. and a 3 mm shaking amplitude. The optical density of the cultures and the mCherry fluorescence was monitored at required intervals in the plate reader. Cell density was measured by monitoring the absorption of the cultures at 600 nm (OD600). Fluorescence was recorded using an excitation wavelength of 575±9 nm and an emission wavelength of 610±20 nm with a manual gain of 100 and a Z-position of 20,000 μm. Fluorescence readings are reported as normalized fluorescence given by the ratio of fluorescence of the cells to the OD600. The fold changes were reported as the ratio of fluorescence level of the strain with engineered promoter to the strain with the basal promoter.
compound,measurement,value
"O=C(O)/C=C/c1ccc(O)cc1 [coumaric acid, reference compound]","induction of the promoters (PemrR, Pvtac, Pvtrc, Pvtic) by the phenolic",some level of induction
